Laboratory results: patent US20240148882A1 (University of California, published 2024)
No constants are given. Whether binding was seen depends on the method and setting. Some binding calls cover weakened binding; strength is not graded here.

Sequences of proteins named here, by UniProt entry; tags and fusion partners are left off. A change or cut given only in a name is not applied to a line headed by its entry. A line that says so, or that is headed by a name, gives the form on record, which may keep a tag or linker.
VEGF165 (P15692, form named): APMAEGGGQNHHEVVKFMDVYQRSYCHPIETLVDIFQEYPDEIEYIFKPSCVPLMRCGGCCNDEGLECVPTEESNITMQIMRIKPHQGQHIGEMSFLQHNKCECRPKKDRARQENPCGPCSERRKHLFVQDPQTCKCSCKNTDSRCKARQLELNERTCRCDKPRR

Target: VEGF165 (human) (UniProt P15692)
Assay: ELISA with 500 pg human VEGF-A165, percent unbound VEGF, four-parameter logistic fit

| Binder | binding |
| --- | --- |
| single-domain camelid (VHH) anti-VEGF antibody, unconjugated (VHH) VHH: DVQLVESGGGLVQPGGSLRLSCAASGRTFSSYSMGWFRQAPGKEREFVVAISKGGYKYDAVSLEGRFTISRDNAKNTVYLQINSLRPEDTAVYYCASSRAYGSSRLRLADTYEYWGQGTLVTVSS | binds |
| conjugated multivalent VHH anti-VEGF antibody (28 VHH per 860 kDa hyaluronic acid) (other, covalently conjugated to 860 kDa hyaluronic acid) VHH: SNADVQLVESGGGLVQPGGSLRLSCAASGRTFSSYSMGWFRQAPGKEREFVVAISKGGYKYDAVSLEGRFTISRDNAKNTVYLQINSLRPEDTAVYYCASSRAYGSSRLRLADTYEYWGQGTLVTVSSSPSTPPTPSPSTPPGGCDDDDKHHHHHH | binds |
